Reference: PubChem BioAssay AID248 (DTP/NCI, 2004)
The list shows only some results of the screen, not a fair sample: it gathers tests that were run many times, whatever their T/C, doses with no T/C, and many T/C values between a quarter and a half above the control. Further doses and runs are listed elsewhere. T/C: endpoint of the treated group in % of that of the vehicle group. Some doses have a count of surviving animals in place of a T/C: the source files T/C as zero there, which appears to mark a toxic dose or a test without result, not a measured value. Some doses without a T/C left all or most animals alive at the check, yet need not have been tolerated: survival well below the control is almost never listed, so the zero probably covers shortened survival too. Survivors were counted at the toxicity check, usually on the fifth day, unless a day is given; later deaths do not show. Schedules are NCI's codes, taken here to give the interval after Q, in days (D) or hours (H), and the number of doses after X. Some structures stand for samples that the source files as different forms (salt, stereo form or complex); doses refer to the form tested. Some entries hold several experiments; their values stand side by side, smallest first. Where survival is the endpoint, the PubChem record calls one and a half times the control and up active, and a quarter to a half above the control has no call in these data; cut-offs in other NCI protocols can differ. Some schedules carry Z or #; the key to these is not given.

Test system: L1210 leukemia ip in BDF1 mice, survival T/C
Experiment: NCI In Vivo Anticancer Drug Screen. Data for tumor model L1210 Leukemia (intraperitoneal) in B6D2F1 (BDF1) mice
Conditions: higher T/C = longer survival
[1] = T/C endpoint: mean survival time, dose: 300.0 mg/kg/injection, schedule: Q01DX001 (ip), vehicle: saline
[2] = T/C endpoint: mean survival time, dose: 400.0 mg/kg/injection, schedule: Q04DX003 (ip), vehicle: Klucel (hydroxypropylcellulose) (HPC)
[3] = T/C endpoint: mean survival time, dose: 75.0 mg/kg/injection, schedule: Q01DX001 (ip), vehicle: saline
[4] = T/C endpoint: mean survival time, dose: 150.0 mg/kg/injection, schedule: Q01DX001 (ip), vehicle: saline
[5] = T/C endpoint: mean survival time, dose: 200.0 mg/kg/injection, schedule: Q01DX009 (ip), vehicle: saline with Tween-80
[6] = T/C endpoint: mean survival time, dose: 400.0 mg/kg/injection, schedule: Q01DX009 (ip), vehicle: saline with Tween-80
[7] = T/C endpoint: mean survival time, dose: 400.0 mg/kg/injection, schedule: Q04DX002 (ip), vehicle: Klucel (hydroxypropylcellulose) (HPC)

Compound: CN(C1CCCCC1)C1CCCCC1
- survivor count (T/C endpoint: mean survival time, dose: 50.0 mg/kg/injection, schedule: Q01DX009 (ip), vehicle: Klucel (hydroxypropylcellulose) (HPC)): 0 of 6
- survivor count (T/C endpoint: mean survival time, dose: 100.0 mg/kg/injection, schedule: Q01DX009 (ip), vehicle: Klucel (hydroxypropylcellulose) (HPC)): 0 of 6
- survivor count (T/C endpoint: mean survival time, dose: 100.0 mg/kg/injection, schedule: Q04DX003 (ip), vehicle: Klucel (hydroxypropylcellulose) (HPC)): 0 of 6
- survivor count (T/C endpoint: mean survival time, dose: 200.0 mg/kg/injection, schedule: Q04DX003 (ip), vehicle: Klucel (hydroxypropylcellulose) (HPC)): 0 of 6
- survivor count [1]: 1 of 6
- survivor count [2]: 0 of 6

Compound: C1CCC(C2CCCC(C3CCCC[N-]3)[N-]2)[N-]C1.[Cl][Pt] (configuration not stated)
- survivor count (T/C endpoint: mean survival time, dose: 100.0 mg/kg/injection, schedule: Q01DX009 (ip), vehicle: saline): 2 of 6
- survivor count (T/C endpoint: mean survival time, dose: 200.0 mg/kg/injection, schedule: Q01DX009 (ip), vehicle: saline): 0 of 6

Compound: CC1(C)CCC(CC(=O)O)(CC(=O)O)CC1
- survivor count (T/C endpoint: mean survival time, dose: 200.0 mg/kg/injection, schedule: Q04DX003 (ip), vehicle: saline with Tween-80): 6 of 6

Compound: C1CNC2CCCC2C1 (configuration not stated)
- survivor count (T/C endpoint: mean survival time, dose: 150.0 mg/kg/injection, schedule: Q01DX001 (ip), vehicle: carboxymethylcellulose (CMC)): 4 of 6
- survivor count (T/C endpoint: mean survival time, dose: 300.0 mg/kg/injection, schedule: Q01DX001 (ip), vehicle: carboxymethylcellulose (CMC)): 2 of 6

Compound: CC(=O)OC(=O)C1C2CC3C(C2)C31 (configuration not stated)
- survivor count (T/C endpoint: mean survival time, dose: 100.0 mg/kg/injection, schedule: Q04DX003 (ip), vehicle: other): 6 of 6
- survivor count (T/C endpoint: mean survival time, dose: 200.0 mg/kg/injection, schedule: Q04DX003 (ip), vehicle: other): 3 of 6
- survivor count (T/C endpoint: mean survival time, dose: 400.0 mg/kg/injection, schedule: Q04DX003 (ip), vehicle: other): 0 of 6

Compound: CCCCCC[N+]1(C)CC2C3C=CC(C3)C2C1 (configuration not stated)
- survivor count (T/C endpoint: mean survival time, dose: 115.0 mg/kg/injection, schedule: Q04DX003 (ip), vehicle: saline): 2 of 6
- survivor count (T/C endpoint: mean survival time, dose: 170.0 mg/kg/injection, schedule: Q04DX003 (ip), vehicle: saline): 0 of 6

Compound: CC(C)(O)C#N
- survivor count (T/C endpoint: mean survival time, dose: 20.0 mg/kg/injection, schedule: Q01DX001 (ip), vehicle: saline): 0 of 4
- survivor count (T/C endpoint: mean survival time, dose: 30.0 mg/kg/injection, schedule: Q01DX001 (ip), vehicle: saline): 0 of 6
- survivor count (T/C endpoint: mean survival time, dose: 40.0 mg/kg/injection, schedule: Q01DX001 (ip), vehicle: saline): 0 of 4
- survivor count (T/C endpoint: mean survival time, dose: 60.0 mg/kg/injection, schedule: Q01DX001 (ip), vehicle: saline): 0 of 6
- survivor count [3]: 0 of 6
- survivor count (T/C endpoint: mean survival time, dose: 80.0 mg/kg/injection, schedule: Q01DX001 (ip), vehicle: saline): 0 of 4
- survivor count (T/C endpoint: mean survival time, dose: 100.0 mg/kg/injection, schedule: Q01DX001 (ip), vehicle: saline): 0 of 4
- survivor count [4]: 0 of 6
- survivor count (T/C endpoint: mean survival time, dose: 200.0 mg/kg/injection, schedule: Q01DX001 (ip), vehicle: saline): 0 of 4
- survivor count [1]: 0 of 6
- survivor count (T/C endpoint: mean survival time, dose: 400.0 mg/kg/injection, schedule: Q01DX001 (ip), vehicle: saline): 0 of 4

Compound: N#CC1(C#N)C2C=CC(C2)C1(C#N)C#N
- survivor count (T/C endpoint: mean survival time, dose: 25.0 mg/kg/injection, schedule: Q01DX009 (ip), vehicle: saline with Tween-80): 3 of 6 and 6 of 6
- survivor count (T/C endpoint: mean survival time, dose: 50.0 mg/kg/injection, schedule: Q01DX009 (ip), vehicle: saline with Tween-80): 1 of 6
- survivor count (T/C endpoint: mean survival time, dose: 100.0 mg/kg/injection, schedule: Q01DX009 (ip), vehicle: saline with Tween-80): 0 of 6
- survivor count [5]: 0 of 6
- survivor count [6]: 0 of 6

Compound: O=C(O)CSCc1ccccc1
- survivor count [5]: 5 of 6
- survivor count [6]: 5 of 6

Compound: Nc1cc(Nc2cccc(Br)c2)nc(N)n1
- survivor count [7]: 0 of 3

Compound: C[C@H]1CC2=CC(=O)CC[C@]2(C)[C@H]2CC[C@@]3(C)[C@@H](CC[C@]3(C)O)[C@H]12
- survivor count (T/C endpoint: mean survival time, dose: 400.0 mg/kg/injection, schedule: Q01DX009 (ip), vehicle: acetone): 3 of 6
- survivor count (T/C endpoint: mean survival time, dose: 400.0 mg/kg/injection, schedule: Q01DX009 (sc), vehicle: acetone): 0 of 6
- survivor count (T/C endpoint: mean survival time, dose: 800.0 mg/kg/injection, schedule: Q01DX009 (ip), vehicle: acetone): 0 of 6
- survivor count (T/C endpoint: mean survival time, dose: 800.0 mg/kg/injection, schedule: Q01DX009 (sc), vehicle: acetone): 0 of 6
- survivor count (T/C endpoint: mean survival time, dose: 1200.0 mg/kg/injection, schedule: Q01DX009 (ip), vehicle: acetone): 0 of 6
- survivor count (T/C endpoint: mean survival time, dose: 1200.0 mg/kg/injection, schedule: Q01DX009 (sc), vehicle: acetone): 0 of 6
- survivor count (T/C endpoint: mean survival time, dose: 1600.0 mg/kg/injection, schedule: Q01DX009 (ip), vehicle: acetone): 0 of 6
- survivor count (T/C endpoint: mean survival time, dose: 1600.0 mg/kg/injection, schedule: Q01DX009 (sc), vehicle: acetone): 1 of 6

Compound: NC(=O)Nc1ccc(Br)cc1Br
- survivor count [7]: 3 of 3

Compound: COC(=O)C(CCSC)NC(=O)c1ccccc1 (configuration not stated)
- survivor count [6]: 6 of 6

Compound: CCCN(C)/N=N/c1nc[nH]c1C(N)=O
- T/C (T/C endpoint: mean survival time, dose: 33.5 mg/kg/injection, schedule: Q01DX009 (ip), vehicle: carboxymethylcellulose (CMC)): 126 % of control
- T/C (T/C endpoint: mean survival time, dose: 50.0 mg/kg/injection, schedule: Q01DX009 (ip), vehicle: carboxymethylcellulose (CMC)): 128 % of control
- T/C (T/C endpoint: mean survival time, dose: 75.0 mg/kg/injection, schedule: Q01DX Z (ip), vehicle: carboxymethylcellulose (CMC)): 135 % of control
- T/C (T/C endpoint: mean survival time, dose: 200.0 mg/kg/injection, schedule: Q01DX001 (ip), vehicle: carboxymethylcellulose (CMC)): 143 % of control
- survivor count (T/C endpoint: mean survival time, dose: 200.0 mg/kg/injection, schedule: Q01DX009 (ip), vehicle: carboxymethylcellulose (CMC)): 3 of 6
- T/C (T/C endpoint: median survival time, dose: 25.0 mg/kg/injection, schedule: Q01DX009 (ip), vehicle: steroid suspending solution, evaluated on day 40): 133 % of control
- T/C (T/C endpoint: median survival time, dose: 25.0 mg/kg/injection, schedule: Q01DX009 (ip), vehicle: steroid suspending solution, evaluated on day 50): 138 % of control
- T/C (T/C endpoint: median survival time, dose: 50.0 mg/kg/injection, schedule: Q01DX009 (ip), vehicle: steroid suspending solution): 133 % of control
- T/C (T/C endpoint: median survival time, dose: 100.0 mg/kg/injection, schedule: Q01DX009 (ip), vehicle: steroid suspending solution): 144 % of control

Compound: Nc1ccccc1CSc1nc2nc[nH]c(=O)c2[nH]1
- survivor count [2]: 0 of 6

Compound: CC(C)(CO)NCc1ccc(Cl)c(Cl)c1
- survivor count (T/C endpoint: mean survival time, dose: 400.0 mg/kg/injection, schedule: Q01DX009 (ip), vehicle: Klucel (hydroxypropylcellulose) (HPC)): 3 of 6

Compound: CC/C(=N/N=C(N)N)c1ccc(NC(=O)Nc2ccc(/C(CC)=N/N=C(N)N)cc2)cc1
- survivor count (T/C endpoint: mean survival time, dose: 20.0 mg/kg/injection, schedule: Q01DX009 (ip), vehicle: saline): 6 of 6
- survivor count (T/C endpoint: mean survival time, dose: 40.0 mg/kg/injection, schedule: Q01DX009 (ip), vehicle: saline): 0 of 6
- survivor count (T/C endpoint: mean survival time, dose: 80.0 mg/kg/injection, schedule: Q01DX009 (ip), vehicle: saline): 0 of 6
- survivor count (T/C endpoint: mean survival time, dose: 160.0 mg/kg/injection, schedule: Q01DX009 (ip), vehicle: saline): 0 of 6
- survivor count (T/C endpoint: mean survival time, dose: 320.0 mg/kg/injection, schedule: Q01DX009 (ip), vehicle: saline): 0 of 6

Compound: CC(C)CP(=O)(CC(C)C)C1CCCCC1
- survivor count (T/C endpoint: mean survival time, dose: 400.0 mg/kg/injection, schedule: Q04DX003 (ip), vehicle: saline with Tween-80): 2 of 6

Compound: COc1cc2c(cc1OC)C[N+]1(C)CCc3cc(OC)c(OC)cc3C1C2 (configuration not stated)
- survivor count [3]: 0 of 6
- survivor count [4]: 0 of 6
- survivor count [1]: 0 of 6

Compound: CSc1cc(C)c(O)c(C)c1
- survivor count (T/C endpoint: mean survival time, dose: 400.0 mg/kg/injection, schedule: Q01DX009 (ip), vehicle: other): 5 of 6

Compound: O=N[C@H]1C2CC([C@@H]1Cl)[C@@H]1CC=C[C@H]21 (some centres not stated)
- survivor count (T/C endpoint: mean survival time, dose: 400.0 mg/kg/injection, schedule: Q01DX001 (ip), vehicle: carboxymethylcellulose (CMC)): 4 of 4
